Assay results published in publication doi:10.1101/211250 (bioRxiv, 2017).
No constants are given. Whether binding was seen depends on the method and setting. For some of these results: In cells and extracts the contact can be indirect. Some binding calls cover weakened binding; strength is not graded here. Non-standard residues stand in square brackets, D forms with d. No end group written: not given here. pS = N[C@@H](COP(=O)(O)O)C(=O)O

Amino acid sequences for entries named in this document (tags omitted). A change or cut given only in a name is not applied to a line headed by its entry. Residues count along the entry.
UniProt Q14160: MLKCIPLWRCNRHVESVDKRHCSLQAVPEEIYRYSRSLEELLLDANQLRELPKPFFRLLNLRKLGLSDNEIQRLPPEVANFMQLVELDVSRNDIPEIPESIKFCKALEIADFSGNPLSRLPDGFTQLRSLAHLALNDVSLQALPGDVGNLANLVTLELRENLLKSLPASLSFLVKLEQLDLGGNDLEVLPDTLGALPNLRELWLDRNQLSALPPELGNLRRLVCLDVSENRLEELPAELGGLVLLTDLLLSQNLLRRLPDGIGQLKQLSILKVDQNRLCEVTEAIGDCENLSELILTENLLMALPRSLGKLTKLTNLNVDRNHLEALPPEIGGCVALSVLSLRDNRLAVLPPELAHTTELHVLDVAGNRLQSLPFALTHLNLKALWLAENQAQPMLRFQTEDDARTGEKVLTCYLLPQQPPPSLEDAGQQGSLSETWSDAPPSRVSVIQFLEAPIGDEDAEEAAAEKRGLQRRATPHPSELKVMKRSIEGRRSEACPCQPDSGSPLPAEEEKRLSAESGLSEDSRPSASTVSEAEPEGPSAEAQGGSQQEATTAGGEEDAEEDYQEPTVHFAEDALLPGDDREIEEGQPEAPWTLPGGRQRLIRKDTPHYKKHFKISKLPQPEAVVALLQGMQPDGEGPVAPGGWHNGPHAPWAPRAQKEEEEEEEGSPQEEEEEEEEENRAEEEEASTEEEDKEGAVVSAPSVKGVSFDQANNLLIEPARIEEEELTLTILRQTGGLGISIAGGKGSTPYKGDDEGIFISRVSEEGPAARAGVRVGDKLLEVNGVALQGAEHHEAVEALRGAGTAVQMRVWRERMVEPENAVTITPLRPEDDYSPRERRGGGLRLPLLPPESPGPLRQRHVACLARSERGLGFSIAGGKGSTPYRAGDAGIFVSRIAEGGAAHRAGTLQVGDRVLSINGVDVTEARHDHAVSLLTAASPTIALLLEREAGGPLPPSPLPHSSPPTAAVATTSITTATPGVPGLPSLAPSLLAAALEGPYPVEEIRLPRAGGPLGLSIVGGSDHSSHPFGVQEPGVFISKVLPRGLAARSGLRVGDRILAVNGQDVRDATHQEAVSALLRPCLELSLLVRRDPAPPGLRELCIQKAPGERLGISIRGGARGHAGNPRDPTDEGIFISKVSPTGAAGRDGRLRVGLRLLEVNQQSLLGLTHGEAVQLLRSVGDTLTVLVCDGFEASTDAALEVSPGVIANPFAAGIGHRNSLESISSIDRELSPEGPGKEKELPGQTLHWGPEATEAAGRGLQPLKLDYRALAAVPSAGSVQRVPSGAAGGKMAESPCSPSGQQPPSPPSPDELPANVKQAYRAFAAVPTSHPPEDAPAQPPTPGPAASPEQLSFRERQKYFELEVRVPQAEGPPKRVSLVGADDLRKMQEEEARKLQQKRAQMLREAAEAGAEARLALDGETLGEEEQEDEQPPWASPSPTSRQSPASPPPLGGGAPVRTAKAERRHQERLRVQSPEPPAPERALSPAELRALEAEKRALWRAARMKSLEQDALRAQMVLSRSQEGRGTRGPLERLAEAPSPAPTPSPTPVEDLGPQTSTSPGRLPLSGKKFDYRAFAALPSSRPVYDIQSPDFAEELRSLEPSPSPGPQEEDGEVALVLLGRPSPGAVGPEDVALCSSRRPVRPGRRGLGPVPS
Scribble PDZ1: residues 719-829 of Q14160
UniProt Q15349: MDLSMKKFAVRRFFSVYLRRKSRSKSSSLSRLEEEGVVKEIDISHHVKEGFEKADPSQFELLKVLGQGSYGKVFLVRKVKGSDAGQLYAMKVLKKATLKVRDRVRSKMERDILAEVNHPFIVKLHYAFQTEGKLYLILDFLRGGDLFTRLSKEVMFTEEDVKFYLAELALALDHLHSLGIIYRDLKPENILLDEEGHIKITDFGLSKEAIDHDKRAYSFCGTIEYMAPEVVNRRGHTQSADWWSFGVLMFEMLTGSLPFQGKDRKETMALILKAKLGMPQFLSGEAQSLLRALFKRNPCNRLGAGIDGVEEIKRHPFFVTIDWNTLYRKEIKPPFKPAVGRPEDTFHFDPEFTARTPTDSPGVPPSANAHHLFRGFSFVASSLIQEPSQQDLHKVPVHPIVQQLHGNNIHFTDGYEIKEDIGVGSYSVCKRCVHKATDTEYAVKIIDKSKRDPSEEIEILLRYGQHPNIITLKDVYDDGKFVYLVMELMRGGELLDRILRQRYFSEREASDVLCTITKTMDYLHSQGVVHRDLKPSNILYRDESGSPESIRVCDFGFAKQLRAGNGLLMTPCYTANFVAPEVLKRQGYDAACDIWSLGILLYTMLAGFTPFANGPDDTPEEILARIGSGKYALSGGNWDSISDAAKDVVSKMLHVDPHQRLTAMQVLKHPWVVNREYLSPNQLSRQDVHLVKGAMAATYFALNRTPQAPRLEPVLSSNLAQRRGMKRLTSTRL

How the values were obtained:
[1] = target: GFP-tagged full-length Scribble (human) (UniProt Q14160); experiment: co-IP
[2] = target: T1, FITC-labeled unphosphorylated RPS6KA2 peptide (RLTSTRL-coo-) (human); experiment: MST
T1 sequence (peptide, FITC label, position not stated): RLTSTRL

[3] = target: T2, FITC-labeled unphosphorylated MCC peptide (HTNETSL-coo-) (human); experiment: MST
T2 sequence (peptide, FITC label, position not stated): HTNETSL

Scribble PDZ1 (human) = Scribble PDZ1 (human) (UniProt Q14160); experiment: phage display selection

**Q.** For “Flag-tagged RPS6KA2Δ (the three last amino acids truncated) (from UniProt Q15349 1-730) (domain or fragment)”, which binding [1] is on record?
**A.** no binding

**Q.** Which binding [1] does the source give for “Flag-tagged full-length RPS6KA2 S730A (from UniProt Q15349 1-733)” here?
**A.** no binding

**Q.** Which binding [1] does the source give for “Flag-tagged full-length RPS6KA2 S730E (from UniProt Q15349 1-733)” here?
**A.** binds

**Q.** With “Flag-tagged full-length RPS6KA2 wild-type (from UniProt Q15349 1-733)” as the molecule, how does the binding [1] read?
**A.** no binding

B1: Shank1 PDZ (domain or fragment)
chain: TVLLQKKDSEGFGFVLRGAKAQTPIEEFTPTPAFPALQYLESVDEGGVAWRAGLRMGDFLIEVNGQNVVKVGHRQVVNMIRQGGNTLMVKVVMVT
**Q.** For B1, which binding [2] is on record?
**A.** binds

**Q.** What about the binding [3] of the same molecule?
**A.** binds

**Q.** For KRSFIESNV [wild-type TANC1 peptide (…-coo-) displayed on phage], which binding (Scribble PDZ1 (human)) is on record?
**A.** binds
